Reference: PubChem BioAssay AID1259405 (NCATS, 2018)
The whole screen tested about 50,000 reagents; this is a random part of them. Of all reagents, about 4,000 (8%) got an active call. 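Mouse siRNA library applied to hamster cells; one well for each siRNA.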

Screen: 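Mouse-designed siRNAs used to find CHO productivity engineering targets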 (primary screen)
Cells: Chinese hamster CHO-K1 ovary cells with stable secreted eGFP expression
Knock-down reagent: single siRNA against mouse genes, 0.8 pmol siRNA per well (2 µl of 400 nM stock)
Time to read-out: 3 days
Read-out: 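Per-well intracellular GFP measured by laser scanning cytometry, plus viability from ATP luminescence, each relative to plate median of non-targeting control wells, in %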
Reading the numbers: GFP, % of control: higher = more GFP per well, higher productivity; viability (ATP), % of control: higher = more viable cells (more ATP)
Call rule: 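a knock-down is called active if GFP reaches 120% or more of non-targeting control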

gene,PubChem SID,"GFP, % of control","viability (ATP), % of control",call
Zfat (GeneID 380993),SID363540923,26.9,47.4,inactive
Zfat (GeneID 380993),SID363555550,68.9,67.6,inactive
Zfat (GeneID 380993),SID363565839,42.6,51.2,inactive
Zfp157 (GeneID 72154),SID363573179,68.3,61.8,inactive
Zfp157 (GeneID 72154),SID363588418,84.8,80.2,inactive
Slc17a9 (GeneID 228993),SID363547720,41.3,65.2,inactive
Slc17a9 (GeneID 228993),SID363558489,45.9,54.2,inactive
Slc17a9 (GeneID 228993),SID363560247,85.4,61.4,inactive
Clu (GeneID 12759),SID363550192,89.2,96.8,inactive
Clu (GeneID 12759),SID363564701,51.4,79.2,inactive
Clu (GeneID 12759),SID363588246,68.6,91.2,inactive
Or6c75 (GeneID 258935),SID363554732,107,83.1,inactive
Or6c75 (GeneID 258935),SID363568179,37.6,38.5,inactive
Or6c75 (GeneID 258935),SID363586238,98,0.829,inactive
Or8h10 (GeneID 258587),SID363544455,67.3,56,inactive
Or8h10 (GeneID 258587),SID363550783,89.1,76.2,inactive
Or8h10 (GeneID 258587),SID363557332,37.5,56,inactive
Ttll9 (GeneID 74711),SID363541680,89.9,73.5,inactive
Ttll9 (GeneID 74711),SID363553272,61.6,69.6,inactive
Ttll9 (GeneID 74711),SID363566596,55.6,59.1,inactive
Or10ak12 (GeneID 435804),SID363544720,67.9,60.2,inactive
Or10ak12 (GeneID 435804),SID363551048,112,83.7,inactive
Or10ak12 (GeneID 435804),SID363557597,103,77.8,inactive
Dnm1 (GeneID 13429),SID363541464,37.9,37.1,inactive
Dnm1 (GeneID 13429),SID363556091,84.1,75.6,inactive
Dnm1 (GeneID 13429),SID363566380,136,43.2,active
Nubp2 (GeneID 26426),SID363569723,153,95.7,active
Nubp2 (GeneID 26426),SID363576763,50.5,63.3,inactive
Nubp2 (GeneID 26426),SID363578171,48.6,68.8,inactive
Daam1 (GeneID 208846),SID363541135,102,76.2,inactive
Daam1 (GeneID 208846),SID363555762,72.1,73.1,inactive
Daam1 (GeneID 208846),SID363566051,75.7,77,inactive
Rbm14 (GeneID 56275),SID363569095,66.1,54.3,inactive
Rbm14 (GeneID 56275),SID363583527,86,72.8,inactive
Suclg1 (GeneID 56451),SID363584540,71.9,72.5,inactive
Suclg1 (GeneID 56451),SID363589570,81,62.7,inactive
Zbtb14 (GeneID 22666),SID363573835,129,132,active
Zbtb14 (GeneID 22666),SID363581579,52.6,74.2,inactive
Zbtb14 (GeneID 22666),SID363584043,66.7,89.7,inactive

Records above with an active call (3):
gene,PubChem SID,"GFP, % of control","viability (ATP), % of control",call
Dnm1 (GeneID 13429),SID363566380,136,43.2,active
Nubp2 (GeneID 26426),SID363569723,153,95.7,active
Zbtb14 (GeneID 22666),SID363573835,129,132,active

Further results follow:
gene,PubChem SID,"GFP, % of control","viability (ATP), % of control",call
Tpt1 (GeneID 22070),SID363572402,70,93.7,inactive
Tpt1 (GeneID 22070),SID363574162,80.8,89.4,inactive
Pcdhb10 (GeneID 93881),SID363541843,123,67.2,active
Pcdhb10 (GeneID 93881),SID363553435,67.4,71.4,inactive
Pcdhb10 (GeneID 93881),SID363566759,65.5,82.4,inactive
Zfp934 (GeneID 77117),SID363555347,88,78,inactive
Zfp934 (GeneID 77117),SID363564008,85,45.3,inactive
Zfp934 (GeneID 77117),SID363587554,86.9,109,inactive
Cstpp1 (GeneID 228356),SID363540657,80.8,72.4,inactive
Cstpp1 (GeneID 228356),SID363543108,41.7,17.7,inactive
Cstpp1 (GeneID 228356),SID363552601,60.5,66.2,inactive
Galnt15 (GeneID 78754),SID363570397,173,125,active
Galnt15 (GeneID 78754),SID363579197,74.2,99.9,inactive
Galnt15 (GeneID 78754),SID363583069,85.3,104,inactive
Galnt15 (GeneID 78754),SID363589688,96.4,87,inactive
Galnt15 (GeneID 78754),SID363589714,79.2,77.2,inactive
Galnt15 (GeneID 78754),SID363589848,76,87.5,inactive
Msantd3 (GeneID 66665),SID363552225,68.8,71.2,inactive
Msantd3 (GeneID 66665),SID363585361,95,84.4,inactive
Msantd3 (GeneID 66665),SID363585712,108,130,inactive
